PubChem BioAssay AID1259424 – University of Nebraska Medical Center, 2018

- Purpose: 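Find knockdowns that reproduce the expression shifts seen after KSR1 loss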 (primary screen)
- Cell system: human HCT116 colon cancer cells
- Reagent: siRNA pool against human genes, 50 nM
- Detection: 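Log2 levels of six mRNAs (branched-DNA multiplex), adjusted by two reference genes and the non-targeting median, then scored against the average KSR1 knockdown pattern as Pearson r and euclidean distance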
- Direction: mean correlation with KSR1 profile and KSR1 correlation: higher = expression change more like KSR1 knockdown; mean distance from KSR1 profile: higher = expression change less like KSR1 knockdown
Here is a random part of about 14,000 reagents. 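Higher correlation or smaller distance means closer resemblance to KSR1 loss; control wells, including KSR1 knockdowns, recur on many plates.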 The record does not give: the time to read-out.

gene symbol	mean correlation with KSR1 profile	mean distance from KSR1 profile	KSR1 correlation, replicate 1	KSR1 correlation, replicate 2	KSR1 correlation, replicate 3
MON1B	-0.18	1.7	-0.111	-0.121	-0.378
TMOD4	0.326	1.3	-0.149	0.35	0.0421
HINT2	0.547	2.72	0.65	0.559	0.23
ADRB1	0.624	1.33	0.609	0.65	0.626
C10orf95	0.153	2.11	0.138	0.324	0.0825
TEX13A	-0.437	3.33	-0.464	-0.487	-0.503
BGLAP	0.142	1.07	0.0917	0.405	-0.152
WIPI1	-0.603	4.78	-0.578	-0.693	-0.545
NLGN3	0.263	1.12	0.212	0.465	0.0322
ENTPD6	0.374	1.61	0.312	0.371	0.344
ZNF256	0.144	1.8	0.283	0.205	-0.0951
FOXJ3	-0.223	1.71	-0.214	-0.374	-0.0663
CIZ1	0.52	2.15	0.521	0.345	0.73
CNIH4	0.0554	1.61	-0.171	-0.293	-0.0102
SLC25A13	0.552	2.78	0.491	0.423	0.64
DOCK8	0.183	2.39	0.00693	0.282	-0.0683
ZNF415	0.579	0.614	0.578	-0.16	0.619
CUTA	-0.0477	3.29	0.0988	-0.0651	-0.0867
IL21R	0.326	1.23	0.422	0.394	0.137
CSNK1G3	0.188	2.02	0.0758	0.14	-0.0259
PLPP1	0.441	2.56	0.644	0.236	0.439
UNC45A	-0.375	1.76	-0.589	-0.593	-0.24
GABRB2	-0.316	4.35	-0.672	-0.392	0.0343
BPY2	-0.137	1.68	-0.0775	0.0345	-0.0878
NTNG1	0.0943	2.17	0.379	-0.0452	-0.00109
CNOT6	0.325	1.65	0.0261	0.0709	0.41
PFKFB3	0.416	1.61	0.719	0.371	-0.124
TRMT112	-0.471	2.46	-0.504	-0.499	-0.311
NTS	0.262	2.67	0.37	0.154	0.224
RPS6KA3	0.0206	1.56	0.458	-0.0958	-0.582
LGALSL	0.0639	1.99	-0.0699	-0.319	-0.118
CCDC136	0.838	1.49	0.631	0.833	0.669
DYRK1B	0.267	2.41	0.522	0.109	-0.339
H4C5	-0.0445	1.8	0.0174	0.169	-0.288

Targets listed so far whose target name starts with P or p:
gene symbol	mean correlation with KSR1 profile	mean distance from KSR1 profile	KSR1 correlation, replicate 1	KSR1 correlation, replicate 2	KSR1 correlation, replicate 3
PLPP1	0.441	2.56	0.644	0.236	0.439
PFKFB3	0.416	1.61	0.719	0.371	-0.124
